# Percent effect of library compounds

Amino acid sequences for entries named in this document (tags omitted). Residues count along the entry.
UniProt I6X8D2, whole entry: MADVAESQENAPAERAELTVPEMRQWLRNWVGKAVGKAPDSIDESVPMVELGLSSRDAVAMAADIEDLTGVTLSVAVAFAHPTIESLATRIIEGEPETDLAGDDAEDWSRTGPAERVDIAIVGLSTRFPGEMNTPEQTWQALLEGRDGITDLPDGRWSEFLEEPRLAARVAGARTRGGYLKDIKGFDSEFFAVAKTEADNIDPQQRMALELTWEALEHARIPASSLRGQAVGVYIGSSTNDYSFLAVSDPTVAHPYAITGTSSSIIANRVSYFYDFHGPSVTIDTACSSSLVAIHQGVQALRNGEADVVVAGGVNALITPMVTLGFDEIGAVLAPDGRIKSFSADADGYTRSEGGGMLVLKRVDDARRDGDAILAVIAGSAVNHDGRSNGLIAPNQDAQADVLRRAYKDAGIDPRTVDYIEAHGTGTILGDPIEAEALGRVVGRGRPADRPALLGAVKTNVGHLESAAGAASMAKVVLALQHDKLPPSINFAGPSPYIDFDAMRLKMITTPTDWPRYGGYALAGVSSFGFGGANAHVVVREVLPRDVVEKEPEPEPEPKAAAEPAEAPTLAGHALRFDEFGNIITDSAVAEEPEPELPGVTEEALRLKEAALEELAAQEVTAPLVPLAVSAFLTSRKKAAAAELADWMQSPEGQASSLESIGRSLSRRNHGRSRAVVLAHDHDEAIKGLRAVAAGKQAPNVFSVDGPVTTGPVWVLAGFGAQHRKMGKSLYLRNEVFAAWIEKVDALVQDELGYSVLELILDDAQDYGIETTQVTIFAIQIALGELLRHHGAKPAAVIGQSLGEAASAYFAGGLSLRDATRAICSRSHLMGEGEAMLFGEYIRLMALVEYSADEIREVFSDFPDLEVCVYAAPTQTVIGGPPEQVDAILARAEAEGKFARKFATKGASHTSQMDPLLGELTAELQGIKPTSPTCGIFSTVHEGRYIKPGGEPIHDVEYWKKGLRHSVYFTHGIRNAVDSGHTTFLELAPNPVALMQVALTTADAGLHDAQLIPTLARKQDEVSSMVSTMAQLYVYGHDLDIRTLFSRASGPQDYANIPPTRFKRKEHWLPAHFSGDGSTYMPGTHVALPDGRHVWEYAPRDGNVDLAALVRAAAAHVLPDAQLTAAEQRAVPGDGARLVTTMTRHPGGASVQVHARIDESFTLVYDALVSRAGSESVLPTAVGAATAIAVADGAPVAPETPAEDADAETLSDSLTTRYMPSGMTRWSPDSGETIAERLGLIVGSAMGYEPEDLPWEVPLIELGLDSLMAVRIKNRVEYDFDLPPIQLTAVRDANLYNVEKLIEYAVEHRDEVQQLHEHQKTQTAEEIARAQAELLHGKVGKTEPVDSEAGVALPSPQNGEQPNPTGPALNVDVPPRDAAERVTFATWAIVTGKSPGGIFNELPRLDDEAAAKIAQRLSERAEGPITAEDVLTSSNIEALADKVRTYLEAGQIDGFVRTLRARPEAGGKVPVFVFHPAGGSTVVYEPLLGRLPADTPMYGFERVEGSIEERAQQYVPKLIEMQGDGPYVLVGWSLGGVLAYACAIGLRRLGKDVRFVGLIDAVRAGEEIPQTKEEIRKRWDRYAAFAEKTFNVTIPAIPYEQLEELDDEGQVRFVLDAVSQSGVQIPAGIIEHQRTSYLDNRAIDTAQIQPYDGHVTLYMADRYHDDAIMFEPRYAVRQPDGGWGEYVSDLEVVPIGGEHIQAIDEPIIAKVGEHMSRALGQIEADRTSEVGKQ
UniProt A4I591, 1-473: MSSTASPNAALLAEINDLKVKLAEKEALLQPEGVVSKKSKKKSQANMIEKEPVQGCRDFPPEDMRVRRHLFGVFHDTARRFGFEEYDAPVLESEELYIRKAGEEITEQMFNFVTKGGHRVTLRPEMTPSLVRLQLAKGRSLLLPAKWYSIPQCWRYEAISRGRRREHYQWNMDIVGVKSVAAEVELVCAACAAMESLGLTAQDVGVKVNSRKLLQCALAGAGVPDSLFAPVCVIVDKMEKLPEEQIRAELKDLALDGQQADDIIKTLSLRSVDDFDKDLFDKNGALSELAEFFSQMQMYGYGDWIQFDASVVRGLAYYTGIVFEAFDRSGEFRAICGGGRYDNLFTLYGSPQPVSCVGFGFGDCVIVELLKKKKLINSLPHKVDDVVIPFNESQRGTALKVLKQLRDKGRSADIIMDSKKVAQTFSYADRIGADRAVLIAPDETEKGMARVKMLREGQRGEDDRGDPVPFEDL

Source: ChEMBL document CHEMBL3988442, “University of Dundee, Small-Polar-MMV Screening Library” (2021).

Values are the deposited “Percent Effect”, in %.
The record does not define 0% and 100%; most values in the screen are far below 50% and negative numbers occur (in some assays of this library far below -100).
Compounds were drawn at random from those tested, without regard to their results.
Two or more numbers in one place are separate tests of the same structure; such repeats can differ widely.
A dash means the value is not listed here; it may have been measured.

Leishmania in macrophages: 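Cell assay of Leishmania donovani living inside macrophages; the read-out is not stated. Concentration: 30 µM. Direction is inferred from retests: higher values go with stronger inhibition. About 69,000 compounds were tested under these conditions; 1.5% (about 1,000) showed 50% or more at least once.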
Pks13 thioesterase: 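Enzyme assay of the thioesterase domain of polyketide synthase 13; the read-out is not stated. Target: Polyketide synthase Pks13, Mycobacterium tuberculosis (UniProt I6X8D2). Tested at 30 µM. Higher reads as stronger inhibition (inferred from which compounds were picked for retests). About 67,000 compounds were tested under these conditions; 0.46% (about 300) showed 50% or more at least once.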
LiHisRS: 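Histidine-tRNA ligase, Leishmania infantum (UniProt A4I591). Enzyme assay of histidyl-tRNA synthetase; the read-out is not stated. Compounds at 30 µM. Direction is inferred from retests: higher values go with stronger inhibition. The assay is labelled LdHisRS but filed under L. infantum. Size under these conditions: about 69,000 compounds, about 410 of them at 50% or above in at least one test.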

structure,Leishmania in macrophages,Pks13 thioesterase,LiHisRS
CS(=O)(=O)N1CCO[C@@H]2CN(Cc3ccc(F)cc3)C[C@@H]2C1,-,-34.12,15.79
Cc1nc2c(c(N(C)Cc3ccccc3-n3cccn3)n1)CCNCC2,-4.584,-22.24,18.64
CC(C)N1CCO[C@H]2CN(C(=O)c3ccsc3)C[C@H]21,-,-16,17.43
COc1ccccc1CCc1nc(CC2CCN(C)CC2)no1,5.516,-21.25,0
CSC1(CNc2ccc(Br)cn2)CCOCC1,-29.31,-22.97,19.18
[H][C@]12CC[C@]([H])(CN(Cc3ccncc3)C1)N(C(=O)OC)C2,16.71,-,-
CN(C)c1ncccc1CNS(=O)(=O)c1ccc(F)cc1F,21.78,-9.916,5.769
CN(Cc1cccnc1)C[C@H]1OC[C@@H]2CCN(C(=O)C3CC3)C[C@@H]21,-,-10.15,16
Cc1nc(CN2CCCN(c3nccs3)CC2)no1,11.26,-8.285,17.31
O=C(O)c1cc(-c2ccc3c(c2)OCO3)cc(S(=O)(=O)NC2CC2)c1,6.514,-27.74,-1.042
CCN(CC)CC1CN(Cc2ccco2)Cc2nccn2C1 (stereo not drawn),29.14,-8.719,15.96
CCC(C(=O)N(C)CCC1=CCN(C)CC1)c1ccccc1 (stereo not drawn),-25.74,-,27.71
CC(C)CCNc1c(C#N)c2c(c3nncn13)CN(C)CC2,3.982 & 22.49,-5.904,18.42
COc1cc(C2CC(=O)Oc3cc(C)[nH]c(=O)c32)ccc1OC(F)F (stereo not drawn),4.866,-15.44,9.709
O=C(c1ccc(Cl)cc1)N1CCn2c(nn(-c3ccc(Cl)cc3)c2=O)C1,23.55,-38.25,11.03
CC(C)C[C@H](NC(=O)CNC(=O)OC(C)(C)C)C(=O)OC(C)(C)C,-0.3548,-15.36,17.5
O=C(NCCNc1ccc(Br)cn1)c1ccc(O)cc1,6.006,-26.76,14.17
CC(C)Cn1ccnc1CNC(=O)NC(C)c1nccs1 (stereo not drawn),-1.755,-20.44,7.042
CC(=O)N1CCN([C@@H]2CN(C(=O)c3ccccc3C)C[C@H]2O)CC1,-9.014,5.265,12.77
Nc1ncncc1-c1noc([C@@H]2CCCN2Cc2cccnc2)n1,6.118,-21.66,20.27
CCn1nc(C)c(C(=O)N2C[C@@H](CN(C)CCOC)[C@@H](CO)C2)c1C,-7.702,-8.695,12.94
CCn1ncnc1C(C)NC(=O)C1CCN(C2CCCCC2)CC1 (stereo not drawn),10.97,-35.96,22.37
Cn1ccnc1CN1CCN(Cc2ccccc2)[C@@H]2CS(=O)(=O)C[C@@H]21,-,-22.85,5.594
CCc1ncc2c(n1)CN(CC(=O)Nc1nncs1)CC2,-8.356,-10.45,8.621
Cc1nonc1CC(=O)N1C[C@@H]2CC[C@H](C1)N(Cc1ccccc1)C2=O,-,-12.64,3.846
CCC[C@@H]1CN(C(=O)Cc2sc(C)nc2C)C[C@H]1C(=O)O,5.806,-14.53,19.74
CC(C)Oc1ncnc2c1CCN(Cc1ccco1)CC2.O=C(O)C(F)(F)F,-16.04,-,-
c1cc(CO[C@H]2CC[C@H]3[C@H]2OCCN3Cc2nccs2)ccn1,-,-14.88,6.364
COCc1nc(C(=O)NS(=O)(=O)c2ccc(F)cc2F)cs1,11.55,-11.51,8.333
Cc1ccccc1N1CCN(C(=O)Cc2ccc3c(c2)OCO3)CC1=O,1.195,-24.22,22.58
Cc1cc(C(F)(F)F)nc(CNC(=O)C2CCCCCN2C)n1 (stereo not drawn),-24.17,-,-4.255
CN1CCN(C(=O)[C@H]2CC[C@@H]3[C@@H](CCN3Cc3nccs3)O2)CC1,-,-2.744,-10.09
Cc1nccn1CCC1CCN(C2CCC3(CCNCC3)CC2)CC1,13.18,-29.45,18.18
Cc1cc(CC(C)NC(=O)c2n[nH]c3c2CCC3)n[nH]1 (stereo not drawn),23.14,-14.06,14.67
[H][C@@]12CCN(C(=O)COC)C[C@@]1([H])O[C@@H](c1nc(C)no1)C2,37.83,-,-
O=C(c1cnccn1)N1C[C@@H]2CC[C@H](C1)N(C(=O)CCc1ccsc1)C2,-,-26.65,15.2
Cn1c(Nc2cn[nH]c2)c(C#N)c(=O)n(C)c1=O,-14.03,-9.704,-3.774
O=C(Cc1csc(-c2ccco2)n1)N1CCCC1Cn1cccn1 (stereo not drawn),25.55,-8.204,1.724
CCc1nc(N2CCC3(CCC(=O)N(CCCO)C3)CC2)no1,8.611,-12.62,10.75
O=C(Nc1ccccc1C(=O)NCCN1CCOCC1)c1ccco1,-10.09,-12.31,7.752
OC1(CNc2ccc(Br)cn2)CCSCC1,18,8.755,3.665
COC(=O)c1ccc(C2SCC(=O)Nc3c2cnn3C(C)(C)C)cc1 (stereo not drawn),47.77,5.608,5.495
CC(=O)NCCNCc1cn(CCN2CCSCC2)nc1C,28.55,3.009,4.918
Cc1ccc(N2CCN(C(=O)CCc3ccc(O)cc3)CC2=O)cc1,31.9,5.272,6.557
Cc1ccc(-c2nc(CN3CCCCC3Cn3cncn3)no2)cc1 (stereo not drawn),17.85,-14.66,20
CC1(C(=O)N2CCOCC2)CN(CC2CCOCC2)CCO1 (stereo not drawn),-6.626,8.592,5.634
COc1ccc(C(=O)N2CCOc3ccncc32)cc1,6.631,-8.953,12.86
CCC(=O)N1CCN(C)C(=O)C(Cc2ccccc2-c2cccs2)C1 (stereo not drawn),9.014,5.8,12.77
CCOCC1c2c(ncn2C(C)C)CCN1C(=O)CC (stereo not drawn),-0.5995,5.446,0.8547
O=C(O)C(F)(F)F.[H][C@]12CN(Cc3cccs3)C[C@@]1([H])OCCN(C(=O)c1ccsc1)C2,20.6,-,-
c1cc(CN2CC[C@H]3CO[C@H](CN4CCOCC4)[C@H]3C2)cs1,-,-3.348,8.333
CC(C)(C)c1cnc(CN2CCCS(=O)(=O)CC2)o1,9.769,-23.15,14.29
O=C(c1cccc(CN2CCCC2)c1)N1CCCC(n2cncn2)C1 (stereo not drawn),-10.91,-9.804,26.19
CCN1C(=O)CCC12CCCN(Cc1nccs1)CC2 (stereo not drawn),-,-36.98,15.33
CCc1ncnc2c1CCN(C(=O)c1cccn1C)CC2,42.43,-16.23,15
COCCN1CCCCC12CC(=O)N(c1ccccc1OC)C2.O=C(O)C(F)(F)F (stereo not drawn),20.15,-,-
Cc1cc(NC(=O)CN2CCc3nn(C)c(=O)cc3C2)on1,-10.41,9.796,56.73
Cc1cccc(N2CCN(C(=O)CNCCn3cccn3)CC2)c1,-6.003,7.505,12
O=C(O)C(F)(F)F.[H][C@]12CCC[C@@]1(COCc1ccncc1)CN(C(=O)CS(C)(=O)=O)C2,8.213,-,-
CC(C)SCCn1ccc2[nH]c(=O)c(C#N)cc2c1=O,29.88,12.16,7.527
O=C(NCCCn1cccn1)NCC(c1ccco1)N1CCCC1 (stereo not drawn),14.68,-14.41,15.04
COCCNC(=O)C[C@@H]1COC[C@H]2CN(Cc3cccnc3)C[C@@H]12,-,7.604,9.615
O=S1(=O)NC[C@H]2CCN(Cc3ccccc3)CC[C@H]21,-,-51.59,21.05
[H][C@]12C[C@H](C(=O)NCC3CC3)N(C)[C@@]1([H])CN(Cc1ccco1)C2,30.2,-,-
CSc1ccc(CN(C(=O)c2cc(=O)[nH]c(=O)[nH]2)C2CC2)cc1,-7.064,14.64,-5.263
Cc1cc(C(F)(F)F)nc(CCNC(C)Cn2ccnc2)n1 (stereo not drawn),9.015,-12.19,12.09
O=C(CC1CC1)N1CCC2(CC1)CN(c1ncc(F)cn1)CCO2,13.88,-9.308,13
Cc1nc2c(Nc3cccc(C#N)c3)nc(N)nc2n1C,27.08,58.84,28.32
COCC(=O)NCc1cc(=O)n2c(n1)CN(C)CCC2,-,-,6.364
CN1CC(=O)N(c2ccsc2)CC12CCN(C(=O)c1ccccc1)C2.O=C(O)C(F)(F)F (stereo not drawn),-19.96,-,-

Once more, the final 7:

structure,Leishmania in macrophages,Pks13 thioesterase,LiHisRS
[H][C@]12C[C@H](C(=O)NCC3CC3)N(C)[C@@]1([H])CN(Cc1ccco1)C2,30.2,-,-
CSc1ccc(CN(C(=O)c2cc(=O)[nH]c(=O)[nH]2)C2CC2)cc1,-7.064,14.64,-5.263
Cc1cc(C(F)(F)F)nc(CCNC(C)Cn2ccnc2)n1 (stereo not drawn),9.015,-12.19,12.09
O=C(CC1CC1)N1CCC2(CC1)CN(c1ncc(F)cn1)CCO2,13.88,-9.308,13
Cc1nc2c(Nc3cccc(C#N)c3)nc(N)nc2n1C,27.08,58.84,28.32
COCC(=O)NCc1cc(=O)n2c(n1)CN(C)CCC2,-,-,6.364
CN1CC(=O)N(c2ccsc2)CC12CCN(C(=O)c1ccccc1)C2.O=C(O)C(F)(F)F (stereo not drawn),-19.96,-,-